{"sequences": {"note": "Protein sequences, listed by entry. Tags and fused reporters are not part of them. Lines headed by an entry give the natural chain unless they say otherwise; changes in a name come on top.", "UniProt P42338": "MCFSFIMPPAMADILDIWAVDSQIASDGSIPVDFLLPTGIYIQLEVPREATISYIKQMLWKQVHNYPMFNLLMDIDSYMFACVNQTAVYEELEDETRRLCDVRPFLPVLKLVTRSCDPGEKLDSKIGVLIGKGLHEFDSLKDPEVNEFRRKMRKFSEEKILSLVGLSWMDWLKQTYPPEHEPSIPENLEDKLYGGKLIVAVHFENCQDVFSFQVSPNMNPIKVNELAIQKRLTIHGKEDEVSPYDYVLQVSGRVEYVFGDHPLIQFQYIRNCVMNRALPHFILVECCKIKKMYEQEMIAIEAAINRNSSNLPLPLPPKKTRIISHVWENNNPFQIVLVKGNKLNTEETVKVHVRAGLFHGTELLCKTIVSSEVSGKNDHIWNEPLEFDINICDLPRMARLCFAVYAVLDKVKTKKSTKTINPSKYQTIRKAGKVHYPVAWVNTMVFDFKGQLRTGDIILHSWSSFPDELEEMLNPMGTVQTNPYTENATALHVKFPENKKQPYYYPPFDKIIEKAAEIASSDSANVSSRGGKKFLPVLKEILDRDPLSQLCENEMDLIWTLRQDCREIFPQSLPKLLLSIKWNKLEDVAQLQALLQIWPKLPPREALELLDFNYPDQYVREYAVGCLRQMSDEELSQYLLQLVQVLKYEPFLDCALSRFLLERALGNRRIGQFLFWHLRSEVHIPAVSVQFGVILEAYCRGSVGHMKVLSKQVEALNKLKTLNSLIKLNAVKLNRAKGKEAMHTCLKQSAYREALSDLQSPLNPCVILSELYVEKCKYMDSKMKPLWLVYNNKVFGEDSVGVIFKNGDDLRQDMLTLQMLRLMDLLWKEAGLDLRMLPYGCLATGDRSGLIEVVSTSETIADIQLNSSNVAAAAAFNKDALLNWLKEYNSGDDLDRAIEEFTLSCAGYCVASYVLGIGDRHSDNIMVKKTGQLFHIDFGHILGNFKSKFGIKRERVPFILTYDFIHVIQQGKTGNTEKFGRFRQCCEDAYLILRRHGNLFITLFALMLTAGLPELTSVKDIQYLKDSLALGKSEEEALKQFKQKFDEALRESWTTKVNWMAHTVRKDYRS"}, "source": "the Kinase Knowledgebase extract (Sharma et al. 2016)", "data": [{"molecular_target": "PIK3CB (Human) (UniProt P42338)", "units": {"IC50": "nM"}, "values": [{"smiles": "CC(C)n1nc(-c2ccc(C(N)=O)c(Cl)c2)c2c(N)ncnc21", "IC50": "1000 to 50000"}, {"smiles": "Nc1ncnc2c1c(-c1ccc(Cl)c(O)c1)nn2[C@@H]1CCNC1", "IC50": "< 1000"}, {"smiles": "COc1cc(-c2nn(C(C)C)c3ncnc(N)c23)ccc1O", "IC50": "1000 to 50000"}]}]}
